Reference: PubChem BioAssay AID686938 (Drosophila RNAi Screening Center, 2013)

- Assay: 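Fly genes required for calcium entry once internal stores are emptied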 (primary screen)
- Cell system: Drosophila S2R+ cells
- Reagent: long dsRNA against Drosophila genes, about 0.25 µg dsRNA per well, roughly 10,000 cells
- Timing: 5 days of knock-down before the calcium assay
- Conditions: thapsigargin (SERCA pump blocker) to empty calcium stores; entry signal taken 4 min after adding it
- Detection: 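Per-well fluo-4 fluorescence in two replicates, unnormalised, measured in resting cells and 4 min after store depletion by the SERCA blocker thapsigargin; ratio of the two present in few wells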
- Direction: calcium entry signal: higher = stronger calcium signal after store depletion; resting calcium signal: higher = higher resting calcium signal
- Rule for the call: 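Hit if the duplicate-averaged plate z-score for entry over resting signal is under −3; wells with weak total dye signal (Fmax z < −2) or more than 5 off-targets removed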
- Meaning of the calls: active = strongly reduced calcium entry; inactive = no strong reduction
The screen tested about 23,000 reagents; below is an unselected part of those with a known target gene and a result. Over the whole deposit, 75 (0.33%) are marked active. 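Raw plate signals without normalisation; calls rest on plate z-scores that were not deposited; ratio present for only 364 wells.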 Entries without a mark were called inactive. Reagents against one gene are numbered here. Not stated in the record: the dose of the treatment.

no.	predicted target	reagent no.	calcium entry signal, replicate 1 (fluorescence units)	calcium entry signal, replicate 2 (fluorescence units)	resting calcium signal, replicate 1 (fluorescence units)	resting calcium signal, replicate 2 (fluorescence units)
1	Tpl94D (Transition protein-like 94D)	1	3.60e7	3.22e7	1.79e7	1.64e7
2	IP3K2 (Inositol 1,4,5-triphosphate kinase 2)	1	4.39e7	4.37e7	2.01e7	1.93e7
3	IP3K2 (Inositol 1,4,5-triphosphate kinase 2)	2	4.01e7	6.38e7	1.98e7	3.01e7
4	IP3K2 (Inositol 1,4,5-triphosphate kinase 2)	3	3.62e7	3.61e7	2.22e7	1.85e7
5	eEF1beta (eukaryotic translation elongation factor 1 beta)	1	3.82e7	3.72e7	1.69e7	1.79e7
6	CG34353	1	3.47e7	3.75e7	1.65e7	1.59e7
7	CG34353	2	2.53e7	3.74e7	1.31e7	1.73e7
8	CG34353	3	2.79e7	4.71e7	1.38e7	2.15e7
9	CG34353	4	2.74e7	4.51e7	1.42e7	2.00e7
10	CG34353	5	3.70e7	3.80e7	1.87e7	1.53e7
11	nes (nessy)	1	2.23e7	3.56e7	1.10e7	1.48e7
12	CG11322	1	4.32e7	3.16e7	1.95e7	1.51e7
13	CG2794	1	2.32e7	2.02e7	1.16e7	9.98e6
14	CG7329	1	4.71e7	5.72e7	2.35e7	2.52e7
15	CG6282	1	5.21e7	3.18e7	3.26e7	1.42e7
16	CG1671	1	3.26e7	2.36e7	1.61e7	1.36e7
17	CG7335	1	3.38e7	5.01e7	1.57e7	2.15e7
18	ChT (Choline transporter)	1	2.26e7	2.20e7	1.26e7	1.09e7
19	BckdhA (Branched chain keto acid dehydrogenase E1 subunit alpha)	1	3.71e7	3.68e7	1.80e7	1.92e7
20	CG12147	1	5.35e7	3.42e7	2.46e7	1.65e7
21	Mdr65 (Multi drug resistance 65)	1	2.97e7	4.70e7	1.48e7	2.09e7
22	ppk26 (pickpocket 26)	1	3.08e7	6.65e7	1.39e7	2.49e7
23	lace	1	4.17e7		2.30e7	
24	hbn (homeobrain)	1	4.35e7	5.12e7	2.39e7	2.53e7
25	hbn (homeobrain)	2	5.21e7	5.51e7	2.48e7	2.59e7
26	hbn (homeobrain)	3	5.46e7	5.96e7	2.62e7	2.58e7
27	hbn (homeobrain)	4	2.94e7	3.15e7	1.68e7	1.44e7
28	CG33298	1	2.92e7	5.03e7	1.44e7	2.07e7
29	CG33298	2	5.92e7		2.58e7	
30	RpS2 (Ribosomal protein S2)	1	8.48e6		7.00e6	
31	tyn (trynity)	1	5.12e7	3.83e7	2.14e7	1.66e7
32	dysc (dyschronic)	1	2.62e7	4.78e7	1.49e7	2.44e7
33	dysc (dyschronic)	2	3.15e7	3.49e7	1.72e7	1.61e7
34	dysc (dyschronic)	3	4.07e7	6.88e7	1.90e7	3.23e7
35	dysc (dyschronic)	4	3.80e7	3.20e7	1.94e7	1.66e7
36	dysc (dyschronic)	5	2.85e7	3.86e7	1.46e7	1.88e7
37	dysc (dyschronic)	6	3.62e7	4.36e7	1.77e7	1.94e7
38	Bacc (Bacchus)	1	3.70e7	4.86e7	1.87e7	1.92e7
39	GABPI (beta4GalNAcTB pilot)	1	4.52e7		2.27e7	
40	Tsp29Fb (Tetraspanin 29Fb)	1	3.52e7	4.34e7	1.56e7	1.96e7

Part of the list above, reformatted.
dysc (dyschronic) #1 → calcium entry signal, replicate 1 (fluorescence units): 2.62e7; calcium entry signal, replicate 2 (fluorescence units): 4.78e7; resting calcium signal, replicate 1 (fluorescence units): 1.49e7; resting calcium signal, replicate 2 (fluorescence units): 2.44e7
dysc (dyschronic) #2 → calcium entry signal, replicate 1 (fluorescence units): 3.15e7; calcium entry signal, replicate 2 (fluorescence units): 3.49e7; resting calcium signal, replicate 1 (fluorescence units): 1.72e7; resting calcium signal, replicate 2 (fluorescence units): 1.61e7
dysc (dyschronic) #3 → calcium entry signal, replicate 1 (fluorescence units): 4.07e7; calcium entry signal, replicate 2 (fluorescence units): 6.88e7; resting calcium signal, replicate 1 (fluorescence units): 1.90e7; resting calcium signal, replicate 2 (fluorescence units): 3.23e7
dysc (dyschronic) #4 → calcium entry signal, replicate 1 (fluorescence units): 3.80e7; calcium entry signal, replicate 2 (fluorescence units): 3.20e7; resting calcium signal, replicate 1 (fluorescence units): 1.94e7; resting calcium signal, replicate 2 (fluorescence units): 1.66e7
dysc (dyschronic) #5 → calcium entry signal, replicate 1 (fluorescence units): 2.85e7; calcium entry signal, replicate 2 (fluorescence units): 3.86e7; resting calcium signal, replicate 1 (fluorescence units): 1.46e7; resting calcium signal, replicate 2 (fluorescence units): 1.88e7
dysc (dyschronic) #6 → calcium entry signal, replicate 1 (fluorescence units): 3.62e7; calcium entry signal, replicate 2 (fluorescence units): 4.36e7; resting calcium signal, replicate 1 (fluorescence units): 1.77e7; resting calcium signal, replicate 2 (fluorescence units): 1.94e7
